Among the data in publication PMC1810427 are binding result and Kd values, retold here.

Protein sequences, listed by entry. Tags and fused reporters are not part of them. Lines headed by an entry give the natural chain unless they say otherwise; changes in a name come on top.
UniProt P38919: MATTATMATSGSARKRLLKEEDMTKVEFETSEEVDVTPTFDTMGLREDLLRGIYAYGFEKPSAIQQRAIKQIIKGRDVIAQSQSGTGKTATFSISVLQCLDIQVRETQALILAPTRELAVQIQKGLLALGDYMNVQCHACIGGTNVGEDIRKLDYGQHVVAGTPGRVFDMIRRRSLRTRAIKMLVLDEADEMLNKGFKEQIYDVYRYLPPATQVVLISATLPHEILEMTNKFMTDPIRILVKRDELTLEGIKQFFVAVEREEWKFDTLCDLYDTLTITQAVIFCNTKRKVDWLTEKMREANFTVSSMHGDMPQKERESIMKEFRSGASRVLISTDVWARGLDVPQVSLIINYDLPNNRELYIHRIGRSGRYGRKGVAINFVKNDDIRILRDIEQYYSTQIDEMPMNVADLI

The exact form of at least one protein or probe is not confirmed. For some assays here: Negatives hold for the conditions tested.

In one series the target is eIF4AIII (human) (UniProt P38919). The experiment in a line: SPR. The following applies: 5 mM Mg2+, SPR (Biacore 2000): 40 mM Tris-HCl pH 7.8, 50 mM NaCl, 4 mM DTT, 5 mM MgCl2, 0.002% Tween 20, 30 ul/min, 10-160 nM protein, temperature not stated, recombinant protein, protein details: N-terminal His6, label: 5' biotin. In general terms: SPR reads the build-up and loss of mass on a sensor chip optically.

For another series, the system named is eIF4AIII + MLN51 SELOR. The series is described as follows: SPR. The following applies: 5 mM Mg2+, SPR (Biacore 2000): 40 mM Tris-HCl pH 7.8, 50 mM NaCl, 4 mM DTT, 5 mM MgCl2, 0.002% Tween 20, 30 ul/min, 10-160 nM protein, temperature not stated, recombinant protein, protein details: N-terminal His6,GST cleaved off (PreScission), label: 5' biotin.

“AUGUCAUUCGAGUACAGUCUGUUCAGCUAGUCUCC [35-mer ssRNA]”: the binding result with eIF4AIII (human) (AMPPNP), with eIF4AIII (human) (ATP) and with eIF4AIII (human) (no nucleotide) was “no binding” each time. The Kd (commonly the concentration at which binding is half-saturated) is 500 nM with eIF4AIII + MLN51 SELOR (ATP) and 1000 nM in the series on eIF4AIII + MLN51 SELOR (no nucleotide).
